Experimental data from paper PMC12061867.
Results are given in words; binding and its absence hold for the method and conditions named. In cells and extracts the contact can be indirect. A result given as binding can be weak or reduced; the word gives no strength.

Amino acid sequences for entries named in this document (tags omitted). A change or cut given only in a name is not applied to a line headed by its entry.
UniProt H0V563: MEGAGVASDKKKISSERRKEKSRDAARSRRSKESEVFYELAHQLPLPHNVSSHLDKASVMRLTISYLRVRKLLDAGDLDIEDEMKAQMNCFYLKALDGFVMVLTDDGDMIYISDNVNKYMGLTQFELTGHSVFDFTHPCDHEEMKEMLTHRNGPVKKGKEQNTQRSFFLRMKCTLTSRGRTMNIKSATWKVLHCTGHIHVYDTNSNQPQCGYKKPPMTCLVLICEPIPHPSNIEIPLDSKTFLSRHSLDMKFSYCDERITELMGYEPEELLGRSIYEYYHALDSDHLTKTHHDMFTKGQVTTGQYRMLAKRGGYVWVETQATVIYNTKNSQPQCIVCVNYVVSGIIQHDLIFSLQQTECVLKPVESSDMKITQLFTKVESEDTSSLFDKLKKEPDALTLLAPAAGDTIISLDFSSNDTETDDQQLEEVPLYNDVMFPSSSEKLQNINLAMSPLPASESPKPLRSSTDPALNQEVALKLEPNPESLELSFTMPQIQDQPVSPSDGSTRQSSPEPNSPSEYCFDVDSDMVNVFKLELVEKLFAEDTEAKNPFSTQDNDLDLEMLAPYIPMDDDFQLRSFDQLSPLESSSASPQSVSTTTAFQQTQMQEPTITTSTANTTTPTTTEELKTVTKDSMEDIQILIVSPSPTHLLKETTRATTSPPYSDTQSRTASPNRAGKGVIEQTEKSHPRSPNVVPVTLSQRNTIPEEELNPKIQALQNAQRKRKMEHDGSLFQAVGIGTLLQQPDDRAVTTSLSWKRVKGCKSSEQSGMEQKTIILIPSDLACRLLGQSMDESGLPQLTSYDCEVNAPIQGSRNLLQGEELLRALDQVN
UniProt H0VQG5: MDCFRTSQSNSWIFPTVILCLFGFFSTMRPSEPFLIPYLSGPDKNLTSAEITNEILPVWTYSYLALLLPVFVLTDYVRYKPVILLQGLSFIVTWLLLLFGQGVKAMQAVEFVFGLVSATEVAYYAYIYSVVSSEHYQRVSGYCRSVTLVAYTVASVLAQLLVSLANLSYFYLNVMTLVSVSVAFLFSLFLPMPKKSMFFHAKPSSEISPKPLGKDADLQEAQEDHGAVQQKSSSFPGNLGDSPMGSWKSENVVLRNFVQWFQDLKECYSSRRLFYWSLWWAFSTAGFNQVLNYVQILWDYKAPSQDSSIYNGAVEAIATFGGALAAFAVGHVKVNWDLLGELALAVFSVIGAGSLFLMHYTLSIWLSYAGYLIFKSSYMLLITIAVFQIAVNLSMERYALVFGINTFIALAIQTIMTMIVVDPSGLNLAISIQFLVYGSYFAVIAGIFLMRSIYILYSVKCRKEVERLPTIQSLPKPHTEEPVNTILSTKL

Biological target: HIF-1α (guinea pig (endogenous in choroidal cells)) (UniProt H0V563)
Experiment: co-IP; fresh guinea pig choroidal cells lysed in RIPA; pre-cleared with protein A and G magnetic beads; antibody to the target protein (1-5 ug) on beads, non-specific IgG as control; 4°C; washes with IP lysis buffer; SDS-PAGE and blot

SLC19A3 (from UniProt H0VQG5)
binding: binds
